Source: PubChem BioAssay AID1487 (National Center for Advancing Translational Sciences (NCATS), 2009)
The other results are listed elsewhere or left out. Further columns of the screen follow, without active or inactive calls. Most of these compounds were active or inconclusive in the main read-out, so they are no random draw. The note in brackets gives the kind of curve behind each potency; many fits are weak.

Test: qHTS Assay for Modulators of Lamin A Splicing
Conditions: HeLa LMNA splicing GFP/RFP minigene ratio, 48 h
Method in brief: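 S3 HeLa stable clones carrying a lamin A-EGFP splicing minigene plus DsRed2 were seeded at 600 cells/well in Opti-MEM with 2% FBS, pin-dosed and incubated 48 h at 37°C. Acumen cytometry (488 nm) gave the GFP/RFP total-intensity ratio.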

[1] = measured here: RFP viability control channel
[2] = measured here: GFP splicing reporter channel

| SMILES | AC50 [1] | AC50 [2] |
| --- | --- | --- |
| C=CCNc1ncnc2c1cnn2-c1cccc(C)c1 | 5.62 µM [rising, partial curve, poor fit] |  |
| CN(Cc1cnccn1)C(=O)CC1C(=O)NCCN1Cc1cccc(Oc2ccccc2)c1 (configuration not stated) |  | 35.5 µM [falling, single point] |
| CCOC(=O)N1CCC(NC(=O)c2cnn3c2NC(c2ccco2)CC3C(F)(F)F)CC1 (configuration not stated) | 10 µM [rising, partial curve] | 5.01 µM [rising, partial curve] |
| O=C(NCC(c1ccc2c(c1)OCO2)N1CCN(c2ccc(F)cc2)CC1)c1cccc([N+](=O)[O-])c1 (configuration not stated) | 11.2 µM [falling, partial curve] | 10 µM [falling, partial curve, poor fit] |
| CCOC(=O)N1CCN(C(=O)COc2cccc3c2CCN(Cc2cccc(C)c2)C3=O)CC1 | 25.1 µM [rising, single point] |  |
| Cc1nnc(SCc2ccc(C(=O)Nc3cc(Cl)ccc3C)cc2)s1 |  | 35.5 µM [rising, single point] |
| Cc1c(CCC(=O)O)c(=O)oc2cc3occ(-c4ccc(F)cc4)c3cc12 | 15.8 µM [rising, single point] |  |
| COc1cc(-c2ccc(NC(=O)NC3CC3)c(OC)c2)ccc1NC(=O)NC1CC1 |  | 10 µM [falling, partial curve] |
| COc1ccc(Nc2ncnc3c2c(-c2ccccc2)cn3-c2ccc(C)c(Cl)c2)cc1OC | 0.0224 µM [falling, full curve, poor fit] |  |
| COc1ccc(C2=Nc3ccccc3OC2)cc1 | 15.8 µM [rising, single point] |  |
| Cc1cc(Br)cc2c(C(=O)Nc3c(C)n(C)n(-c4ccccc4)c3=O)cc(-c3cccs3)nc12 | 35.5 µM [rising, single point] |  |
| O=C(c1noc2c1CCc1ccccc1-2)N1CCc2ccccc2C1 | 31.6 µM [rising, single point] |  |
| O=C(CSc1nnc(Cc2cccs2)n1Cc1ccco1)Nc1ccc(Cl)cc1Cl | 35.5 µM [rising, single point] | 15.8 µM [rising, single point] |
| COC(=O)c1cc(OC)c(OC)cc1NC(=O)Nc1cccc(C(C)=O)c1 | 0.00316 µM [falling, full curve, poor fit] |  |
| Cc1cc(OCc2ccc(C(=O)NN=C3CCCC3)cc2)ccc1Cl |  | 20 µM [rising, partial curve, poor fit] |
| COc1ccc(OCc2ccc(-c3nc(C#N)c(NCc4ccccc4)o3)o2)cc1 |  | 2.24 µM [rising, single point] |
| N#CCC(=O)Nc1ccc(C(=O)OCC(=O)N(Cc2ccccc2)C2CCS(=O)(=O)C2)cc1 (configuration not stated) | 35.5 µM [rising, single point] | 22.4 µM [rising, single point] |
| CCn1c(SCC#N)nc2c(c1=O)C1(CCCC1)Cc1ccccc1-2 | 35.5 µM [rising, single point] | 35.5 µM [rising, single point] |
| CCCC(=O)N(CCc1ccccc1)Cc1nc2ccccc2c(=O)[nH]1 | 17.8 µM [rising, single point] |  |
| CCc1ccc(NCCC(=O)c2ccc(Br)cc2)cc1 | 12.6 µM [rising, single point] | 14.1 µM [rising, single point] |
| O=S(=O)(c1ccccc1Oc1ccc(Cl)cc1Cl)N1CCCCC1 | 0.0316 µM [falling, full curve, poor fit] | 0.0282 µM [falling, full curve, poor fit] |
| CCCOc1c(OC)cccc1C1CC(=O)Nc2cc(OC)c(OC)c(OC)c21 (configuration not stated) | 12.6 µM [rising, single point] |  |
| O=C(Nc1ccc(S(=O)(=O)Nc2ccccc2)cc1)C1COc2ccccc2O1 (configuration not stated) | 35.5 µM [falling, single point] | 35.5 µM [falling, single point] |
| Cc1ccc(C)c(NC(=O)CCC(=O)N/N=C/c2cc([N+](=O)[O-])ccc2O)c1 |  | 15.8 µM [falling, partial curve, poor fit] |
| O=C(NCc1cccc(F)c1)C1CCCN(C(=O)N2CCOc3ccccc32)C1 (configuration not stated) |  | 5.62 µM [falling, partial curve] |
| O=C(c1ccc(Br)o1)N1CCN(c2ccc3nnc(-c4ccccc4)n3n2)CC1 | 17.8 µM [rising, partial curve, poor fit] |  |
| CN(C)c1ccc(O)c2c1CC1CC3[C@@H](N(C)C)C(=O)C(C(N)=O)=C(O)[C@]3(O)C(=O)C1=C2O (some centres not stated) | 15.8 µM [rising, partial curve, poor fit] | 4.47 µM [rising, partial curve] |

| SMILES | AC50 [1] | AC50 [2] |
| --- | --- | --- |
| O=C(N/N=C/c1ccc2c(c1)OCO2)c1cc(-c2ccncc2)nc2ccccc12 |  | 2.82 µM [rising, full curve] |
| Cc1ccc(COCCN2CCN(S(=O)(=O)c3ccc(C)cc3)CCC2=O)cc1 | 15.8 µM [rising, partial curve] | 10 µM [rising, partial curve, poor fit] |
| Cc1ccc(NC(=S)/N=C(\N)Nc2nc(C)c3cc(C)ccc3n2)c(C)c1 | 10 µM [rising, partial curve] |  |
| CCCCNC(=O)CSc1nnc(-c2c[nH]c3ccccc23)n1CC1CCCO1 (configuration not stated) | 3.55 µM [falling, single point] | 2.24 µM [falling, partial curve, poor fit] |
| Cc1c(C(=O)O)sc2ncn(C)c(=O)c12 | 35.5 µM [rising, single point] |  |
| Cc1cc(C)cc(NC(=S)/N=C(\N)Nc2nc(C)c3ccccc3n2)c1 | 35.5 µM [rising, single point] |  |
| CCOC(=O)C1CCN(C(c2ccc(SC)cc2)c2c(O)cc(C)n(Cc3ccco3)c2=O)CC1 (configuration not stated) |  | 3.98 µM [falling, full curve, poor fit] |
| COc1ccc(/C=C/c2nnc(NC(=O)c3ccco3)s2)cc1 |  | 0.0447 µM [falling, full curve, poor fit] |
| Nc1cc(-c2cccc(Br)c2)nn1Cc1ccccc1 | 11.2 µM [rising, partial curve] | 2.82 µM [rising, full curve, poor fit] |
| COc1ccc(CNC(=O)c2cccc(NC(=O)c3ccccc3)c2)cc1 | 2.82 µM [falling, full curve, poor fit] | 7.94 µM [falling, partial curve] |
| COc1cc2c(cc1C1NC(=S)NC(C)=C1C(=O)N(C)C)CCCC2 (configuration not stated) | 15.8 µM [rising, partial curve, poor fit] | 12.6 µM [rising, single point] |
| COc1ccc2[nH]c(=O)c(CN(Cc3cccs3)S(=O)(=O)c3c(C)ccc4nsnc34)cc2c1 | 2.82 µM [rising, full curve] |  |
| COc1ccc(OC)c(NCc2cccn2-c2nnc(N3CCCCC3)s2)c1 | 31.6 µM [rising, single point] |  |
| Cc1ccc(C)c(S(=O)(=O)c2cn(C)c3cc(N4CCCCC4C)c(F)cc3c2=O)c1 (configuration not stated) | 1.12 µM [rising, full curve] |  |
| CCN(CC)S(=O)(=O)c1cc(NS(=O)(=O)c2cc(Cl)ccc2Cl)ccc1C | 22.4 µM [rising, single point] |  |
| CCOC(=O)C(=O)N1CCN(c2ccccc2OC)CC1 |  | 6.31 µM [rising, partial curve, poor fit] |
| Cn1c(=O)c2c(nc(Br)n2CC(=O)C23CC4CC(CC(C4)C2)C3)n(C)c1=O | 31.6 µM [rising, single point] |  |
| CC(C)(Oc1ccc(CCNC(=O)c2ccc(Cl)cc2)cc1)C(=O)O |  | 0.000355 µM [rising, full curve, poor fit] |
| c1ccc(CC2=NCCN2)cc1 | 0.178 µM [falling, partial curve] |  |
| c1ccc(-c2cn3c(n2)-c2ccccc2C3)cc1 | 1.58 µM [rising, full curve, poor fit] |  |
| COc1cc2c(C(=O)O)c(C)n(CC(C)C)c2c2ccccc12 | 17.8 µM [rising, single point] |  |
| CC(=O)OC1CC2C(C)(C)C(O)CC[C@@]2(C)C2CC[C@@]3(C)C(c4ccoc4)OC(=O)C4OC43[C@]12C (some centres not stated) | 15.8 µM [falling, single point] | 15.8 µM [falling, single point] |
| Clc1ccc(OCCSCc2nc3ccccc3[nH]2)cc1 | 22.4 µM [rising, partial curve] | 22.4 µM [rising, single point] |
| COc1ccc(-n2c(SCC(=O)NC3CCCCC3)nc3ccsc3c2=O)cc1 | 1.41 µM [falling, partial curve, poor fit] |  |
| CCOc1ccc2ncc(S(=O)(=O)c3ccccc3)c(N3CCN(c4ccc(OC)cc4)CC3)c2c1 | 14.1 µM [rising, partial curve] | 8.91 µM [rising, partial curve] |
| Cc1cc2oc(=O)cc(CN3CCN(C/C=C/c4ccccc4)CC3)c2cc1O | 17.8 µM [rising, single point] | 7.94 µM [rising, partial curve, poor fit] |
| CS(=O)(=O)N(CC(=O)N1CCN(c2cccc(Cl)c2)CC1)c1cccc(F)c1 | 15.8 µM [rising, single point] |  |

Part of the list above in order of heavy-atom count, low to high:

| SMILES | AC50 [1] | AC50 [2] |
| --- | --- | --- |
| CCOC(=O)C(=O)N1CCN(c2ccccc2OC)CC1 |  | 6.31 µM [rising, partial curve, poor fit] |
| COc1cc2c(C(=O)O)c(C)n(CC(C)C)c2c2ccccc12 | 17.8 µM [rising, single point] |  |
| Cc1cc(C)cc(NC(=S)/N=C(\N)Nc2nc(C)c3ccccc3n2)c1 | 35.5 µM [rising, single point] |  |
| Cn1c(=O)c2c(nc(Br)n2CC(=O)C23CC4CC(CC(C4)C2)C3)n(C)c1=O | 31.6 µM [rising, single point] |  |
| CS(=O)(=O)N(CC(=O)N1CCN(c2cccc(Cl)c2)CC1)c1cccc(F)c1 | 15.8 µM [rising, single point] |  |
